# Measured values as given in publication doi:10.1101/244152.
# Amino acid sequences for entries named in this document (tags omitted).
# UniProt Q76L83: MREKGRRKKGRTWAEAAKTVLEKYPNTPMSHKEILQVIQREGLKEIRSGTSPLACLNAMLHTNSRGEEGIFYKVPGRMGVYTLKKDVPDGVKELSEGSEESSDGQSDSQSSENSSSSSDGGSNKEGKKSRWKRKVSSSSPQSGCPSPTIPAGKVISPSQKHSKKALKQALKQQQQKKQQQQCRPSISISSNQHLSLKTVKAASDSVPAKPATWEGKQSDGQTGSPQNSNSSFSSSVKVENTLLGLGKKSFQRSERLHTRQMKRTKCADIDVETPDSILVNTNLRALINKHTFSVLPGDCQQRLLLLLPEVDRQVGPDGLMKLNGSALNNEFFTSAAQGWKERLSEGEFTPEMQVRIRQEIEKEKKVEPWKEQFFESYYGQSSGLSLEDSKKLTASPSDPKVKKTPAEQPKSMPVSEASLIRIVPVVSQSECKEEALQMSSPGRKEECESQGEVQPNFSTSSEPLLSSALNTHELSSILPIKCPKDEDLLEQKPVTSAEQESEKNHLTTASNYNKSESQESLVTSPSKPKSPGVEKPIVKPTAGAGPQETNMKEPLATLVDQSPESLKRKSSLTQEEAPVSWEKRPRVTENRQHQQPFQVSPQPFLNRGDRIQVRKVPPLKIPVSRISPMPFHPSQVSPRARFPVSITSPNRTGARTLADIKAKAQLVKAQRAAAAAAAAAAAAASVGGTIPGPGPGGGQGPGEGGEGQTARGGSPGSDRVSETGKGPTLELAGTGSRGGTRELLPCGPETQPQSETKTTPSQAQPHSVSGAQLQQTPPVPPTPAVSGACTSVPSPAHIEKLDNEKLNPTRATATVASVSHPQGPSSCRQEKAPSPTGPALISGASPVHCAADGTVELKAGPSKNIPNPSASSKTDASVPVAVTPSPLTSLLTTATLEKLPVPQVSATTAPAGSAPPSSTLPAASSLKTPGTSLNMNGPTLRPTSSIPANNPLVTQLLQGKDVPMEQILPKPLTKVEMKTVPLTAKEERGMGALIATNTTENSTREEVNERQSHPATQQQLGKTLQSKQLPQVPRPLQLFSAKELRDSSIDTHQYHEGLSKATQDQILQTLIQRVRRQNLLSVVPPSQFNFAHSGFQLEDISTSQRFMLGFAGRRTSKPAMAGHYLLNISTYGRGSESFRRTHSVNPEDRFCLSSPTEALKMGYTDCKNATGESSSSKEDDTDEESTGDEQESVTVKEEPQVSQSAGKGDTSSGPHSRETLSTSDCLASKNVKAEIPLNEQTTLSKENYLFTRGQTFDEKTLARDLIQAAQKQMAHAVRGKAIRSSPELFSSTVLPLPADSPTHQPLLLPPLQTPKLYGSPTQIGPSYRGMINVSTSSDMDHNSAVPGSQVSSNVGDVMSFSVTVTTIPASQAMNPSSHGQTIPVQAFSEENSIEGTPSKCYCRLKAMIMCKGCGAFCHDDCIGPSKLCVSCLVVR
# UniProt Q92560: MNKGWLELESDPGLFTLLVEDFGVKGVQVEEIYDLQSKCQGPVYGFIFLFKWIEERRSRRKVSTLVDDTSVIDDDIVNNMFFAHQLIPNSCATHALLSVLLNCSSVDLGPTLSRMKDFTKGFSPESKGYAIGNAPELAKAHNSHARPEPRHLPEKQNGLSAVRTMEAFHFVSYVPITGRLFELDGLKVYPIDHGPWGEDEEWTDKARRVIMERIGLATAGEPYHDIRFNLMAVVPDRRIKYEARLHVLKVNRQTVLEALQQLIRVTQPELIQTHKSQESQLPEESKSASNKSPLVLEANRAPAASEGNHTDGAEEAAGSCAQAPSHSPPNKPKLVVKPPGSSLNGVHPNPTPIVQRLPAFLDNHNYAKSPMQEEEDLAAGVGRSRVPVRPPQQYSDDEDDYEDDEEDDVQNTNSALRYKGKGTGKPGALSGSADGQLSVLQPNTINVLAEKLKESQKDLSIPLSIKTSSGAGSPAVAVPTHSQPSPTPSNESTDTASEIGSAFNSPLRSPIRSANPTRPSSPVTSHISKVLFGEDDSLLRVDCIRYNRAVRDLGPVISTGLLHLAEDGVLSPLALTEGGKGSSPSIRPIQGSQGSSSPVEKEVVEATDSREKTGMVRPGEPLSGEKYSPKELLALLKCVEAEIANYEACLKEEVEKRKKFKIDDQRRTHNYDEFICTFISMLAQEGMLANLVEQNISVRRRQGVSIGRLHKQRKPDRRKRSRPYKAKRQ
# UniProt Q9BZ95: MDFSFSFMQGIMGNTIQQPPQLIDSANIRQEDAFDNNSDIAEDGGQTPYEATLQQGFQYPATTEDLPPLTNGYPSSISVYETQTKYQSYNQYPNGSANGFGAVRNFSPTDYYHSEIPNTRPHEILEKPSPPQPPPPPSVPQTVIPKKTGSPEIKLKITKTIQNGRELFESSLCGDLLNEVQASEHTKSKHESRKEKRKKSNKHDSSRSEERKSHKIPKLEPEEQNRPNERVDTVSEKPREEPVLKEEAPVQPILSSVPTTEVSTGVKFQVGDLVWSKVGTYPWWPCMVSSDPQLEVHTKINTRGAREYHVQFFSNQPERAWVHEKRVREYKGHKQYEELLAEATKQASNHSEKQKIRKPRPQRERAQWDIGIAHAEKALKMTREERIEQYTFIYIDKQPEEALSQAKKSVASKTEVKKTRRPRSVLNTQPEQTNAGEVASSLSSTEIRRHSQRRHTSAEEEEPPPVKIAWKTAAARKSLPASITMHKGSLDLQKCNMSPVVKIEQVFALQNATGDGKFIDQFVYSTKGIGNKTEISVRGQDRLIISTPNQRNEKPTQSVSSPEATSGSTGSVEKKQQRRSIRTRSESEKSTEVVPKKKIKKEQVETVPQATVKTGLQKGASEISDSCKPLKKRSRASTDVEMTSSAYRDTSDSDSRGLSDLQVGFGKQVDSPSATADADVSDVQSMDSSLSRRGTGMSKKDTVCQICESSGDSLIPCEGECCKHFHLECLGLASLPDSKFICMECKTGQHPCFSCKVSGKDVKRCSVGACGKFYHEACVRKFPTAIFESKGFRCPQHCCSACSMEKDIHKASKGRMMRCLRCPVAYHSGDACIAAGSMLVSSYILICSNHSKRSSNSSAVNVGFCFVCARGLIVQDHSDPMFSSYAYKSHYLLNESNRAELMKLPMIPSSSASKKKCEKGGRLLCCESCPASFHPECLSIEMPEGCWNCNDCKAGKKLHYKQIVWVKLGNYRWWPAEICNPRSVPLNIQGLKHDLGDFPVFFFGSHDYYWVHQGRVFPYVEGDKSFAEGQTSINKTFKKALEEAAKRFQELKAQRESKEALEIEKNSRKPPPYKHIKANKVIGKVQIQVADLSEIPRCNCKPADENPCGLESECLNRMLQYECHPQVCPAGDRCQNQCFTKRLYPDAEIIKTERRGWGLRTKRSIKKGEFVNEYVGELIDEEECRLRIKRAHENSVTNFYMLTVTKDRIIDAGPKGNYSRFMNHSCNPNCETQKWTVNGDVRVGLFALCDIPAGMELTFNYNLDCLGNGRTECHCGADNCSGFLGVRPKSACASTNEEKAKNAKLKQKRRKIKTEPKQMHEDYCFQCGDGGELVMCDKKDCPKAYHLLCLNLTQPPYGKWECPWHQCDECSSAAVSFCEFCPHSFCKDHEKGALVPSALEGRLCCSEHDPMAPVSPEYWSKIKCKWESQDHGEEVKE
# These are yes or no findings as the source states them, for the method shown. In cells and extracts the contact can be indirect. Here binding means that the protein was enriched with, or labelled near, the bait; the list need not be complete. For some of these results: Sequences can lack the tags named with a protein.
# T1: 2xFlag-2xHA-tagged KDM1B stably expressed in HeLa-S3 cells (UniProt Q8NB78)
# T1 sequence: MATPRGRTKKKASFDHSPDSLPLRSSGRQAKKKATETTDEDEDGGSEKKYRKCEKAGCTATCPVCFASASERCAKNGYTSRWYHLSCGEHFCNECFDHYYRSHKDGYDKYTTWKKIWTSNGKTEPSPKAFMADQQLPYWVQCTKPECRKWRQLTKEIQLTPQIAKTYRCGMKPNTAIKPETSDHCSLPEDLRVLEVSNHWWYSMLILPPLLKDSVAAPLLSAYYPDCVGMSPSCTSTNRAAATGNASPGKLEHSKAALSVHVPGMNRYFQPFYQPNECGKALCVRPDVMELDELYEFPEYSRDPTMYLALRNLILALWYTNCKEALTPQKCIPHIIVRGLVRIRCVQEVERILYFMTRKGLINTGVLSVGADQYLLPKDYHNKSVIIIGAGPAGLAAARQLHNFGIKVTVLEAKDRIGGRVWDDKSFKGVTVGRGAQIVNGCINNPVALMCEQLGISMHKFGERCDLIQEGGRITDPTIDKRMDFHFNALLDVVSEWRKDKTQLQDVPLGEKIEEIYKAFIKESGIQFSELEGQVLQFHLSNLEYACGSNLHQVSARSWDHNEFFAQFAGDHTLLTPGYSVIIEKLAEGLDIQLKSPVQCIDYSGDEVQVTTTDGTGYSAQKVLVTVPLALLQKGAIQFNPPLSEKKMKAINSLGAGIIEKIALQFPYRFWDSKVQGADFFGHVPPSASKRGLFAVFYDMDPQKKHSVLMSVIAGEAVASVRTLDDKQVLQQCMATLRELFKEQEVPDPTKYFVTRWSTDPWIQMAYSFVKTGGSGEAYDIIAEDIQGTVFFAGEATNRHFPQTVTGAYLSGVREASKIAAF
# B1: KDM1B (protein, UniProt Q8NB78 1-822)
# chain: T1 sequence
# B2: MBD5 (protein, UniProt Q9P267 1-1494)
# chain: MNGGKECDGGDKEGGLPAIQVPVGWQRRVDQNGVLYVSPSGSLLSCLEQVKTYLLTDGTCKCGLECPLILPKVFNFDPGAAVKQRTAEDVKADEDVTKLCIHKRKIIAVATLHKSMEAPHPSLVLTSPGGGTNATPVVPSRAATPRSVRNKSHEGITNSVMPECKNPFKLMIGSSNAMGRLYVQELPGSQQQELHPVYPRQRLGSSEHGQKSPFRGSHGGLPSPASSGSQIYGDGSISPRTDPLGSPDVFTRSNPGFHGAPNSSPIHLNRTPLSPPSVMLHGSPVQSSCAMAGRTNIPLSPTLTTKSPVMKKPMCNFSTNMEIPRAMFHHKPPQGPPPPPPPSCALQKKPLTSEKDPLGILDPIPSKPVNQNPVIINPTSFHSNVHSQVPMMNVSMPPAVVPLPSNLPLPTVKPGHMNHGSHVQRVQHSASTSLSPSPVTSPVHMMGTGIGRIEASPQRSRSSSTSSDHGNFMMPPVGPQATSSGIKVPPRSPRSTIGSPRPSMPSSPSTKSDGHHQYKDIPNPLIAGISNVLNTPSSAAFPTASAGSSSVKSQPGLLGMPLNQILNQHNAASFPASSLLSAAAKAQLANQNKLAGNNSSSSSNSGAVAGSGNTEGHSTLNTMFPPTANMLLPTGEGQSGRAALRDKLMSQQKDALRKRKQPPTTVLSLLRQSQMDSSAVPKPGPDLLRKQGQGSFPISSMSQLLQSMSCQSSHLSSNSTPGCGASNTALPCSANQLHFTDPSMNSSVLQNIPLRGEAVHCHNANTNFVHSNSPVPNHHLAGLINQIQASGNCGMLSQSGMALGNSLHPNPPQSRISTSSTPVIPNSIVSSYNQTSSEAGGSGPSSSIAIAGTNHPAITKTTSVLQDGVIVTTAAGNPLQSQLPIGSDFPFVGQEHALHFPSNSTSNNHLPHPLNPSLLSSLPISLPVNQQHLLNQNLLNILQPSAGEGDMSSINNTLSNHQLTHLQSLLNNNQMFPPNQQQQQLLQGYQNLQAFQGQSTIPCPANNNPMACLFQNFQVRMQEDAALLNKRISTQPGLTALPENPNTTLPPFQDTPCELQPRIDPSLGQQVKDGLVVGGPGDASVDAIYKAVVDAASKGMQVVITTAVNSTTQISPIPALSAMSAFTASIGDPLNLSSAVSAVIHGRNMGGVDHDGRLRNSRGARLPKNLDHGKNVNEGDGFEYFKSASCHTSKKQWDGEQSPRGERNRWKYEEFLDHPGHIHSSPCHERPNNVSTLPFLPGEQHPILLPPRNCPGDKILEENFRYNNYKRTMMSFKERLENTVERCAHINGNRPRQSRGFGELLSTAKQDLVLEEQSPSSSNSLENSLVKDYIHYNGDFNAKSVNGCVPSPSDAKSISSEDDLRNPDSPSSNELIHYRPRTFNVGDLVWGQIKGLTSWPGKLVREDDVHNSCQQSPEEGKVEPEKLKTLTEGLEAYSRVRKRNRKSGKLNNHLEAAIHEAMSELDKMSGTVHQIPQGDRQMRPPKPKRRKISR
# What was measured:
# Assay in all cases: affinity purification with mass spectrometry
# [1] = target: T1, 2xFlag-2xHA-tagged KDM1B stably expressed in HeLa-S3 cells
# [2] = target: 2xFlag-2xHA-tagged ASXL2 stably expressed in HeLa-S3 cells (UniProt Q76L83)
# [3] = target: 2xFlag-2xHA-tagged BAP1 (BRCA1 Associated Protein 1) stably expressed in HeLa-S3 cells (UniProt Q92560)
Molecule,binding [1],also measured
ASXL2 (from UniProt Q76L83 1-1435),binds,–
NSD3 (from UniProt Q9BZ95 1-1437),binds,–
B1,–,binding [2]: binds
B2,–,binding [3]: binds
